Values from PubChem BioAssay AID1259425 (University of Nebraska Medical Center, 2018)
Screen: 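Compare each knockdown with KSR1 silencing using changes in marker transcripts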 (primary screen). Cell system: HCT116 human colon cancer cells. Reagents: siRNA pool against human genes, 50 nM siRNA. Detection: 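mRNA of six signature genes measured together by branched-DNA assay after 50 nM siRNA pool, blank removed, divided by geometric mean of two housekeeping genes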. Scale: BNIP3L mRNA: higher = more BNIP3L transcript after knockdown; NDRG1 mRNA: higher = more NDRG1 transcript after knockdown; BNIP3 mRNA: higher = more BNIP3 transcript after knockdown.
This is a random part of about 14,000 reagents tested. Some reagents were tested in more than one well and are listed for each. Not all columns of the deposit are shown. Not stated in the record: the time to read-out.

| target | BNIP3L mRNA, set 1 | NDRG1 mRNA, set 1 | BNIP3 mRNA, set 1 |
| --- | --- | --- | --- |
| SFRP5 | 0.185 | 0.268 | 0.295 |
| PPP1R16B | 0.0612 | 0.0263 | 0.141 |
| NEK2 | 0.0576 | 0.428 | 0.348 |
| ZYG11B | 0.156 | 0.423 | 0.345 |
| RANBP1 | 0.0702 | 0.184 | 0.294 |
| RFXAP | 0.0724 | 0.0827 | 0.184 |
| NUP93 | 0.131 | 0.128 | 0.312 |
| OPRPN | 0.0734 | 0.218 | 0.24 |
| PTPN4 | 0.0865 | 0.0738 | 0.186 |
| BDKRB2 | 0.0776 | 0.156 | 0.332 |
| BDKRB2 | 0.134 | 0.212 | 0.277 |
| FOXM1 | 0.0882 | 0.0865 | 0.305 |
| PLA2G4C | 0.0661 | 0.251 | 0.273 |
| FRYL | 0.165 | 0.282 | 0.414 |
| CDK8 | 0.0816 | 0.203 | 0.37 |
| LPO | 0.194 | 0.089 | 0.235 |
| KRT86 | 0.0598 | 0.146 | 0.238 |
| FAM110D | 0.162 | 0.172 | 0.305 |
| SUGCT | 0.251 | 0.197 | 0.362 |
| INVS | 0.103 | 0.143 | 0.373 |
| SENP3 | 0.36 | 0.83 | 0.855 |
| MAGEC3 | 0.0478 | 0.386 | 0.375 |
| ST3GAL2 | 0.0759 | 0.256 | 0.347 |
| SIGLEC8 | 0.0608 | 0.762 | 0.327 |
| PDGFRA | 0.0601 | 0.0959 | 0.235 |
| SIRT3 | 0.204 | 0.41 | 0.489 |
| RIPK4 | 0.136 | 0.187 | 0.279 |
| LSM14A | 0.23 | 0.748 | 0.826 |
| SIGLEC6 | 0.0715 | 0.133 | 0.34 |
| CCSER1 | 0.17 | 0.326 | 0.379 |
| SAC3D1 | 0.102 | 0.288 | 0.429 |
| THUMPD1 | 0.122 | 0.255 | 0.34 |
| CALCB | 0.13 | 0.194 | 0.355 |
| CCDC14 | 0.13 | 0.39 | 0.324 |
| TRUB2 | 0.211 | 0.124 | 0.24 |
| HOXC6 | 0.0719 | 0.288 | 0.236 |
| RNPS1 | 0.196 | 0.166 | 0.477 |
| MSANTD2 | 0.234 | 0.464 | 0.319 |
| GABPB1 | 0.089 | 0.219 | 0.313 |
| EPHX4 | 0.136 | 0.4 | 0.267 |
| ANPEP | 0.111 | 0.218 | 0.276 |
| ZNF768 | 0.136 | 0.327 | 0.466 |
| COL9A2 | 0.106 | 0.242 | 0.267 |
| CD46 | 0.087 | 0.0848 | 0.282 |
| EIF1 | 0.0251 | 0.248 | 0.211 |
| DMTN | 0.0826 | 0.0991 | 0.281 |
| CCDC15 | 0.0447 | 0.229 | 0.188 |
| ELP6 | 0.104 | 0.126 | 0.233 |
| CSF2 | 0.0681 | 0.0847 | 0.226 |
| ASMTL | 0.0707 | 0.232 | 0.417 |
